Assay results taken from patent US20230356105A1, “TETRAAZADODECANE BASED CHELATING AGENTS FOR SEPARATION OF RARE EARTH ELEMENTS AND METHOD THEREFOR” (Ustav Organicke Chemie a Biochemie AV CR V.V.I., priority 2020, published 2023).
“And” between values parts separate entries of the source, which are not always exact repeats. Equal entries are not always repeated.

Experiments:
Assay type in all cases: physicochemical
[1] = Separation of Eu/Yb mixture by precipitation from water/acetonitrile solutions using L5 (Example 17)
Protocol: 3 reaction mixtures, differing in acetonitrile content (group A=10%, group B=20%, group C=50%) were prepared in plastic round-bottom 2 mL Eppendorf tubes, each in duplicate. For group A, the stock solutions were pipetted as follows: 5 μL 100 mM aqueous solution of EuCl3; 5 μL 100 mM aqueous solution YbC13; 10 μL 100 mM aqueous solution of compound L5; 20 μL 3 M MOPS buffer pH=7; 50 μL water; 10 μL acetonitrile.
For group B, the stock solutions were pipetted as follows: 5 μL 100 mM aqueous solution of EuCl3; 5 μL 100 mM aqueous solution YbC13; 10 μL 100 mM aqueous solution of compound L5; 20 μL 3 M MOPS buffer pH=7; 40 μL water; 20 μL acetonitrile. For group C, the stock solutions were pipetted as follows: 5 μL 100 mM aqueous solution of EuCl3; 5 μL 100 mM aqueous solution YbC13; 10 μL 100 mM aqueous solution of compound L5; 20 μL 3 M MOPS buffer pH=7; 10 μL water; 50 μL acetonitrile.
Each tube was equipped with one PTFE-coated magnetic stir bar and sealed, and the mixture was stirred on a magnetic stirrer for 24 hours at room temperature. […] Concentrations of Eu and Yb in the supernatants and in the re-dissolved precipitates were determined by ICP-OES. The resulting absolute concentrations of both metals in the supernatants and precipitates, as well as calculated values of the separation factor Yb/Eu according to the formula from Example 11), are summarized in Table 11.

[2] = Use of additives to improve separation of Nd/Dy mixture by precipitation with L5 (Example 18); details: no additive (0 mM); 11 mM L5
Protocol: Stock solutions were pipetted into plastic 1×1 cm cuvettes to prepare reaction mixtures with concentrations as follows: • 1. […] 5 mM NdCl3 • 3. 5 mM DyCl3 • 4. 500 mM MOPS pH=7 • 5. the additive of interest, in a variable concentration; if possible, stock solutions were prepared from Na^+ salt forms of the compound; if not, the stock solutions were titrated by NaOH/HCl to pH=7 prior to addition (see Table 12 for additives and concentrations)
These aqueous reaction mixtures, each prepared to a total volume of 2.0 mL with the addition of water as necessary, were mixed by the use of a PTFE-coated stir bar on a magnetic stirrer. The cuvettes were sealed with transparent tape to prevent evaporation overnight. The reaction mixtures were stirred for 18 hours, at which point 500 μL aliquots of each reaction mixture were transferred into plastic 2 mL Eppendorf tubes and centrifuged. The supernatants were carefully pipetted out and transferred to a new set of tubes. The precipitate was dissolved by addition of 500 μL 1M HCl. The absolute concentration of Nd and Dy in each supernatant and precipitate was determined by ICP-OES.

[3] = Separation of Nd/Pr mixture by repeated precipitation using L5 and α-HIBA (Example 19); details: all samples
Protocol: Stock solutions were pipetted into 4 mL glass vials to prepare reaction mixtures with concentrations as follows: • 1. 11 mM (1.1 eq) chelator L5 • 2. 5 mM (0.5 eq) PrCl3 • 3. 5 mM (0.5 eq) NdCl3 • 4. […] (4 eq) α-HIBA pH=6.5 • 5. 500 mM (50 eq) MOPS pH=7
Three aqueous reaction mixtures, numbered 1-3, were prepared with a total volume of 2 mL each and were treated identically throughout the process. A PTFE-coated magnetic stir bar was added to each and the reaction mixtures were stirred on a magnetic stirrer overnight at room temperature. […] The Nd and Pr content of these precipitate and supernatant samples was determined by ICP-OES. […] A sample of the supernatant was analysed on HPLC-MS and peak areas were compared to those of a standard 10 mM chelate solution; this allowed for calculation of the approximate concentration of chelate remaining in solution, and therefore of the quantity of chelate which had precipitated. The total volume for subsequent reactions was scaled according to this information, such that the concentration of chelate in solution prior to precipitation was 10 mM, even as the net quantity of chelate present was reduced. […] 4 molar equivalents of a-HIBA were added to this vial, followed by 50 molar equivalents 3 M MOPS pH=7, the necessary calculated volume of water, and 25 molar equivalents 2 M NaOH to finish neutralising the reaction mixture. […]

[4] = Separation of Tb/Dy mixture by repeated precipitation using L5 and α-HIBA (Example 20)
Protocol: Analogous to Example 19, three reaction mixtures were prepared with the following changes: the rare-earth elements were Tb and Dy, and 0.5 molar equivalents (5 mM reaction concentration) of α-HIBA were used. Otherwise, the experiment was run analogously to Example 19.
The resulting absolute concentrations of both metals in the supernatants and precipitates, as well as calculated values of the separation factor Dy/Tb according to the formula from Example 11), are summarized in Table 14. […] The average separation factor was 2.32.

O=C(O)CN1CCN(CC(=O)O)CCN(Cc2cccc3ccccc23)CCN(CC(=O)O)CC1 [L5, 2,2′,2″-(10-(naphthalene-1-ylmethyl)-1,4,7,10-tetraazacyklododekane-1,4,7-triyl)triacetic acid]
Separation factor Eu/Yb ([1]; group A, 10% acetonitrile): 74 and 105 and 90 | Separation factor Eu/Yb ([1]; group B, 20% acetonitrile): 74 and 53 and 64 | Separation factor (Dy/Nd) [2]: 5.5 | average separation factor Nd/Pr [3]: 1.69 | separation factor Dy/Tb ([4]; A, 1st precipitation): 2.34 and 2.33 and 2.30 | separation factor Dy/Tb ([4]; B, 2nd precipitation): 2.33 and 2.28 and 2.38 | separation factor Dy/Tb ([4]; C, 3rd precipitation): 2.26 and 2.34 and 2.33 | average separation factor Dy/Tb ([4]; all samples): 2.32
